Assay results reported in PubChem BioAssay AID328 (DTP/NCI, 2004).
The list shows only some results of the screen, not a fair sample: it gathers some chemical classes. Not every dose and run of a compound is shown. T/C: endpoint of the treated group in % of that of the vehicle group. Where survival is the endpoint, the PubChem record calls one and a half times the control and up active, and a quarter to a half above the control has no call in these data; cut-offs in other NCI protocols can differ. Schedules are NCI's codes, taken here to give the interval after Q, in days (D) or hours (H), and the number of doses after X. Some T/C values are marked as having no survivor count here; that says nothing about deaths at the dose. Some doses were run more than once; the values are given in rising order.

Tested on: BDF1 mice, P388 leukemia ip, median survival T/C
Test: NCI In Vivo Anticancer Drug Screen. Data for tumor model P388 Leukemia (intraperitoneal) in B6D2F1 (BDF1) mice
Conditions: T/C endpoint: median survival time, higher T/C = longer survival
Protocol: The antitumor activity of compounds was measured in mice bearing transplantable tumors. Survival or tumor size were measured and the results are expressed as the measurement made in the treated group (T) divided by the measurement made in the vehicle treated control group (C). The tumor model used in this assay is P388 Leukemia (intraperitoneal) in B6D2F1 (BDF1) mice

[1] = dose: 5.0 mg/kg/injection, schedule: Q04DX002 (ip), vehicle: saline + alcohol

CC1=CC2OC3CC4OC(=O)/C=C/C=C/C(=O)OCCC(C)C(O)C(=O)OCC2(CC1O)C4(C)C31CO1 (stereo not given)
T/C (dose: 62.5 micrograms/kg/injection, schedule: Q01DX009 (ip), vehicle: saline with Tween-80): 96 % of control [survivor count not shown]
T/C (dose: 125.0 micrograms/kg/injection, schedule: Q01DX009 (ip), vehicle: saline with Tween-80): 116 % of control [survivor count not shown]
T/C (dose: 250.0 micrograms/kg/injection, schedule: Q01DX009 (ip), vehicle: saline with Tween-80): 118 % of control [survivor count not shown]
T/C (dose: 500.0 micrograms/kg/injection, schedule: Q01DX009 (ip), vehicle: saline with Tween-80): 142 % of control [survivor count not shown]

CC(=O)OC[C@]12C[C@H](OC(=O)CC(C)C)C(C)=C[C@H]1OC1[C@H](O)[C@@H](OC(C)=O)[C@@]2(C)[C@@]12CO2
T/C (dose: 1.08 mg/kg/injection, schedule: Q04DX003 (ip), vehicle: saline + alcohol): 153 [survivor count not shown], 169 [survivor count not shown], 183 % of control [survivor count not shown]
T/C (dose: 1.25 mg/kg/injection, schedule: Q04DX002 (ip), vehicle: saline + alcohol): 131 % of control [survivor count not shown]
T/C (dose: 1.3 mg/kg/injection, schedule: Q04DX003 (ip), vehicle: other): 117 % of control [survivor count not shown]
T/C (dose: 1.3 mg/kg/injection, schedule: Q04DX003 (ip), vehicle: saline + alcohol): 170 % of control [survivor count not shown]
T/C (dose: 1.8 mg/kg/injection, schedule: Q04DX003 (ip), vehicle: saline + alcohol): 152 [survivor count not shown], 165 [survivor count not shown], 183 % of control [survivor count not shown]
T/C (dose: 2.16 mg/kg/injection, schedule: Q04DX003 (ip), vehicle: saline + alcohol): 188 % of control [survivor count not shown]
T/C (dose: 2.5 mg/kg/injection, schedule: Q04DX002 (ip), vehicle: saline + alcohol): 135 % of control [survivor count not shown]
T/C (dose: 3.0 mg/kg/injection, schedule: Q04DX003 (ip), vehicle: saline + alcohol): 178 [survivor count not shown] and 198 % of control [survivor count not shown]
T/C [1]: 153 % of control [survivor count not shown]
T/C (dose: 5.0 mg/kg/injection, schedule: Q04DX003 (ip), vehicle: saline + alcohol): 208 % of control [survivor count not shown]
T/C (dose: 6.0 mg/kg/injection, schedule: Q04DX003 (ip), vehicle: saline + alcohol): 88 % of control [survivor count not shown]
T/C (dose: 389.0 micrograms/kg/injection, schedule: Q04DX003 (ip), vehicle: saline + alcohol): 136 % of control [survivor count not shown]
T/C (dose: 540.0 micrograms/kg/injection, schedule: Q01DX009 (ip), vehicle: saline + alcohol): 185 % of control [survivor count not shown]
T/C (dose: 648.0 micrograms/kg/injection, schedule: Q04DX003 (ip), vehicle: saline + alcohol): 133 % of control [survivor count not shown]
T/C (dose: 648.0 micrograms/kg/injection, schedule: Q04DX003 (sc), vehicle: saline + alcohol): 150 % of control [survivor count not shown]
T/C (dose: 900.0 micrograms/kg/injection, schedule: Q01DX009 (ip), vehicle: saline + alcohol): 234 % of control [survivor count not shown]
T/C (dose: 1080.0 micrograms/kg/injection, schedule: Q04DX003 (ip), vehicle: saline + alcohol): 139 % of control [survivor count not shown]
T/C (dose: 1080.0 micrograms/kg/injection, schedule: Q04DX003 (sc), vehicle: saline + alcohol): 167 % of control [survivor count not shown]
T/C (dose: 1500.0 micrograms/kg/injection, schedule: Q01DX009 (ip), vehicle: saline + alcohol): 254 % of control [survivor count not shown]
T/C (dose: 1800.0 micrograms/kg/injection, schedule: Q04DX003 (ip), vehicle: saline + alcohol): 161 % of control [survivor count not shown]
T/C (dose: 1800.0 micrograms/kg/injection, schedule: Q04DX003 (sc), vehicle: saline + alcohol): 180 % of control [survivor count not shown]
T/C (dose: 3000.0 micrograms/kg/injection, schedule: Q04DX003 (ip), vehicle: saline + alcohol): 163 % of control [survivor count not shown]

CC(=O)OCC12C(C=C(C)C(=O)C1OC(C)=O)OC1C(OC(C)=O)C(OC(C)=O)C2(C)C12CO2 (stereo not given)
T/C [1]: 89 % of control [survivor count not shown]
T/C (dose: 10.0 mg/kg/injection, schedule: Q04DX002 (ip), vehicle: saline + alcohol): 109 % of control [survivor count not shown]
T/C (dose: 20.0 mg/kg/injection, schedule: Q04DX002 (ip), vehicle: saline + alcohol): 100 % of control [survivor count not shown]
T/C (dose: 40.0 mg/kg/injection, schedule: Q04DX002 (ip), vehicle: saline + alcohol): 100 % of control [survivor count not shown]

CC(=O)O[C@@H]1[C@@H](O)[C@H]2O[C@@H]3C=C(C)C(=O)[C@@H](O)[C@]3(CO)[C@]1(C)[C@]21CO1
T/C (dose: 0.8 mg/kg/injection, schedule: Q01DX009 (ip), vehicle: saline): 169 % of control [survivor count not shown]
T/C (dose: 1.73 mg/kg/injection, schedule: Q04DX003 (ip), vehicle: saline + alcohol): 108 % of control [survivor count not shown]
T/C (dose: 2.88 mg/kg/injection, schedule: Q04DX003 (ip), vehicle: saline + alcohol): 117 % of control [survivor count not shown]
T/C (dose: 4.8 mg/kg/injection, schedule: Q04DX003 (ip), vehicle: saline + alcohol): 130 % of control [survivor count not shown]
T/C (dose: 8.0 mg/kg/injection, schedule: Q04DX003 (ip), vehicle: saline + alcohol): 142 % of control [survivor count not shown]

CC1=C[C@H]2O[C@@H]3C[C@H]4OC(=O)/C=C\C=C\C(C(C)O)OCC[C@@H](C)[C@H](O)C(=O)OC[C@@]2(CC1)[C@]4(C)[C@]31CO1 (stereo not given in full)
T/C (dose: 0.04 mg/kg/injection, schedule: Q01DX009 (ip), vehicle: saline with Tween-80): 117 % of control [survivor count not shown]
T/C (dose: 0.08 mg/kg/injection, schedule: Q01DX009 (ip), vehicle: saline with Tween-80): 128 % of control [survivor count not shown]
T/C (dose: 0.15 mg/kg/injection, schedule: Q01DX009 (ip), vehicle: saline with Tween-80): 120 % of control [survivor count not shown]
T/C (dose: 0.32 mg/kg/injection, schedule: Q04DX003 (ip), vehicle: saline + alcohol): 126 % of control [survivor count not shown]
T/C (dose: 125.0 micrograms/kg/injection, schedule: Q04DX002 (ip), vehicle: saline + alcohol): 100 % of control [survivor count not shown]
T/C (dose: 130.0 micrograms/kg/injection, schedule: Q04DX003 (ip), vehicle: saline + alcohol): 129 % of control [survivor count not shown]
T/C (dose: 216.0 micrograms/kg/injection, schedule: Q04DX003 (ip), vehicle: saline + alcohol): 129 % of control [survivor count not shown]
T/C (dose: 250.0 micrograms/kg/injection, schedule: Q04DX002 (ip), vehicle: saline + alcohol): 105 % of control [survivor count not shown]
T/C (dose: 360.0 micrograms/kg/injection, schedule: Q04DX003 (ip), vehicle: saline + alcohol): 132 % of control [survivor count not shown]
T/C (dose: 600.0 micrograms/kg/injection, schedule: Q04DX003 (ip), vehicle: saline + alcohol): 121 % of control [survivor count not shown]
